These are yes or no findings as the source states them, for the method shown. Binding calls can cover weak binding; strength is not graded here.
Target: neonatal Fc receptor (FcRn)
Test: SPR (Biacore), antibody captured, FcRn as analyte

B1: PD1-C40-6A7-FV3A (bispecific antibody, human IgG4 S228P, kappa)
heavy: EVQLVESGGGLVQPGGSLRLSCAASGFTFSSYSMSWVRQAPGKRLEWVAHISSGGSSTYYPDTVKGRFTISRDNSKNTLYLQMNSLRAEDTAMYYCTRQFYYGSSFWYFDVWGAGTTVTVSSASTKGPSVFPLAPCSRSTSESTAALGCLVKDYFPEPVTVSWNSGALTSGVHTFPAVLQSSGLYSLSSVVTVPSSSLGTKTYTCNVDHKPSNTKVDKRVESKYGPPCPPCPAPEFLGGPSVFLFPPKPKDTLMISRTPEVTCVVVDVSQEDPEVQFNWYVDGVEVHNAKTKPREEQFNSTYRVVSVLTVLHQDWLNGKEYKCKVSNKGLPSSIEKTISKAKGQPREPQVYTLPPSQEEGGGGSGGGGSDVVMTQSPLSLPVTLGQPASISCRSSQSLLHSNGNTYLHWYQQRPGQSPNHLIYQVSNRFSGVPDRFSGSGSGTDFTLKISRVEAEDVGVYFCSQTTHVPWTFGCGTKVEIKGGGGSGGGGSGGGGSGGGGSQVQLVQSGAEVKKPGASVKLSCKASGYTFISYYIYWVKQAPGQCLEWIGGINPRNGGTNFNEKFKSRATLTVDTSISTAYMELSRLRSEDTAVYYCTRHGNGVYWGQGTTLTVSSGGGGSGGGGSVSLTCLVKGFYPSDIAVEWESNGQPENNYKTTPPVLDSDGSFFLYSRLTVDKSRWQEGNVFSCSVMHEALHNHYTQKSLSLSPGK
light: DNVLTQSPATLSVSPGERATLSCKASQSVDFDGDSYMNWYQQKPGQPPRLLIYAASNLESGIPARFSGSGSGTDFTLTISSVEPEDFATYYCQQSNEDPPTFGGGTKVEIKRTVAAPSVFIFPPSDEQLKSGTASVVCLLNNFYPREAKVQWKVDNALQSGNSQESVTEQDSKDSTYSLSSTLTLSKADYEKHKVYACEVTHQGLSSPVTKSFNRGEC
**Q.** How did the binding turn out when B1 was run?
**A.** binds

Source: patent publication US20260234260A1
